According to US20130315927A1 (Novartis, published 2013):
Results are given in words; binding and its absence hold for the method and conditions named. For some assays here: Binding calls can cover weak binding; strength is not graded here.

The chains behind the UniProt entries cited, without tags or fusion partners. Where a name states a change or a piece, a line headed by the entry shows the natural chain unless it says otherwise.
UniProt Q8NBP7: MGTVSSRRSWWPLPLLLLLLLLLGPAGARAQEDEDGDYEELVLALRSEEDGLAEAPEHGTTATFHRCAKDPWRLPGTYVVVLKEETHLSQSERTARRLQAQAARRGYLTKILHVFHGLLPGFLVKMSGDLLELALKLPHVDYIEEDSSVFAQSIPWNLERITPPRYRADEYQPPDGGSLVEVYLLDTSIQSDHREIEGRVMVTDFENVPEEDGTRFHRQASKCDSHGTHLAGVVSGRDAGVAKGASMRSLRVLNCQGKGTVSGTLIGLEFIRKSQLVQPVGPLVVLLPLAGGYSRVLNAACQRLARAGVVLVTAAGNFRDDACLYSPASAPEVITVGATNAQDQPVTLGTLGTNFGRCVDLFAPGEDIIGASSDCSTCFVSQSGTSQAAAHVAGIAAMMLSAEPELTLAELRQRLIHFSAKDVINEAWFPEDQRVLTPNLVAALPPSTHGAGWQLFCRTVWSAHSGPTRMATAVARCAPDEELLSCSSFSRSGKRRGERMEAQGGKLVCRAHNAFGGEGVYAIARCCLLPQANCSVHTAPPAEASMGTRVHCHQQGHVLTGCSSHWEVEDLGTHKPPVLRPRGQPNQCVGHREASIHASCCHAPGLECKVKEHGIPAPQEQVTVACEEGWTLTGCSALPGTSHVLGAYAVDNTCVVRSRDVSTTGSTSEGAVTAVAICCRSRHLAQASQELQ

What was measured:
Klotho-His = experiment: specificity ELISA, antigen coated at 88 ng per well, absorbance 650 nm
[1] = molecular target: recombinant human PCSK9 (aa 31-692) with C-terminal His6 tag (human) (UniProt Q8NBP7); experiment: specificity ELISA
[2] = molecular target: recombinant human PCSK9 (aa 31-692) with C-terminal His6 tag (human) (UniProt Q8NBP7); experiment: specificity ELISA, antigen coated at 88 ng per well, antibody at 2 µg/mL, absorbance 650 nm
[3] = molecular target: recombinant human PCSK9 (aa 31-692) with C-terminal His6 tag (human) (UniProt Q8NBP7); experiment: solution equilibrium titration (SET)
[4] = molecular target: recombinant human PCSK9 (aa 31-692) with C-terminal His6 tag (human) (UniProt Q8NBP7); experiment: TR-FRET blocking assay: antibody titrated on 8 nM hPcsk9-AF, blocked ligand 1 nM hLDL-R-Eu
[5] = molecular target: recombinant human PCSK9 (aa 31-692) with C-terminal His6 tag (human) (UniProt Q8NBP7); experiment: solution equilibrium titration (SET): soluble human PCSK9 titrated against 100 pM antibody, free antibody captured on a Pcsk9-coated MSD plate, electrochemiluminescence
[6] = molecular target: recombinant human PCSK9 (aa 31-692) with C-terminal His6 tag (human) (UniProt Q8NBP7); experiment: ELISA as the text says (the legend of FIGS. 5A-C describes a fitted Kd)
[7] = molecular target: biotinylated PCSK9-Avi-His6 (human) (UniProt Q8NBP7); experiment: ForteBio Octet bio-layer interferometry
[8] = molecular target: recombinant human PCSK9 (aa 31-692) with C-terminal His6 tag (human) (UniProt Q8NBP7); experiment: dilution ELISA with purified Fabs

Row | binding [7] | binding [8] | Binder | binding (Klotho-His) | binding [1] | binding [2] | binding [3] | binding [4] | binding [5] | binding [6]
1 | – | – | Humaneered antibody MAB2 (antibody, human IgG1, V domains shown) VH: QITLKESGPVLVKPTETLTLTCTVSGFSLSTSGVGVGWIRQPPGKALEWLADIWWDDNKYYNPSLKSRLTISKDTSKNQVVLTMTNMDPVDTATYYCARITTEGGFAYWGQGTLVTVSS VL: DIQMTQSPSSLSASVGDRVTITCRAGQRISHNLHWYQQKPDESPRLLINFASRLISGVPSRFSGSGSGTDFTLTISSLQPEDFATYYCQQSNYWPLTFGQGTKLEIK | no binding (tested: 2 µg/mL (single concentration)) | binds | binds | binds | binds | binds | binds
2 | binds | – | candidate Fab with the heavy chain of Clone 37 and the light chain of Clone 45 (Fab form of MAB3) (Fab, V domains shown) VH: QVTLKESGPTLVKPTQTLTLTCTVSGFSLSTSGVGVGWIRQSPGKALEWLADIWWDDNKYYNPSLKSRLTISKDTSKNQVVLTMTNMDPVDTATYYCARITTEGGFAYWGQGTLVTVSS VL: DIQMTQSPSSLSASVGDRVTITCRAGQRISHNLHWYQQKPDESPRLLINFASRLISGVPSRFSGSGSGTDFTLTISSLQPEDFATYYCQQSNYWPLTFGQGTKLEIK | – | – | – | – | – | – | –
3 | – | – | Humaneered antibody MAB3 (antibody, human IgG1, V domains shown) VH: QVTLKESGPTLVKPTQTLTLTCTVSGFSLSTSGVGVGWIRQSPGKALEWLADIWWDDNKYYNPSLKSRLTISKDTSKNQVVLTMTNMDPVDTATYYCARITTEGGFAYWGQGTLVTVSS VL: DIQMTQSPSSLSASVGDRVTITCRAGQRISHNLHWYQQKPDESPRLLINFASRLISGVPSRFSGSGSGTDFTLTISSLQPEDFATYYCQQSNYWPLTFGQGTKLEIK | no binding (tested: 2 µg/mL (single concentration)) | binds | binds | binds | binds | binds | binds
4 | – | – | mouse monoclonal antibody MAB1 (antibody, V domains shown, also called parent mouse monoclonal antibody; murine anti-human Pcsk9 IgG1-kappa monoclonal antibody) VH: QVTLKESGPGILQPSQTLSLTCSFSGFSLSTSGMGVGWIRQPSGEGLEWLADIWWDDNKYYNPSLKSRLTVSKDTSSNQVFLKITSVDTADTATYYCALITTEGGFAYWGQGTLVTVSA VL: DIVLTQSPATLSVTPGDSVSLSCRASQSINNNLHWYQQKSHESPRLLIKFASRSISGIPSKFSGSGSGTDFTLSINSVETEDFGMYFCQQSNYWPLTFGAGTNLELI | no binding (tested: 2 µg/mL (single concentration)) | – | – | – | – | – | –
5 | – | binds | reference Fab SR101-B1 (Fab, V domains shown) VH: QVTLKESGPGILQPSQTLSLTCSFSGFSLSTSGMGVGWIRQPSGEGLEWLADIWWDDNKYYNPSLKSRLTVSKDTSSNQVFLKITSVDTADTATYYCALITTEGGFAYWGQGTLVTVSA VL: DIVLTQSPATLSVTPGDSVSLSCRASQSINNNLHWYQQKSHESPRLLIKFASRSISGIPSKFSGSGSGTDFTLSINSVETEDFGMYFCQQSNYWPLTFGAGTNLELI | – | – | – | – | – | – | –
